In the DeepSol protein solubility set:

Experiment: soluble on expression in E. coli; label from the status in PepcDB or PDB records

Sequence	soluble on expression in E. coli
MPLAYSTHDNFYESPKTPQPTWDHVHAQFPLGEPARNLDKFIEAMFQSVSPLAGVAAAPSQIAALQQIQALMTFQMQQNNLFPKIDTISKSPTPELASPSAKRMRLSPSTSSHSDVASTSKGTNGQDQSKNSPTNSDPFYTIGQSTPNTSSFLDTSNSSFGAPSTVVANPMTNYQLAFQAKLGSLHSLIGDSVQSLTSDRMIDFLSNKEKYECVISIFHAKVAQKSYGNEKRFFCPPPCIYLIGQGWKLKKDRVAQLYKTLKASAQKDAAIENDPIHEQQATELVAYIGIGSDTSERQQLDFSTGKVRHPGDQRQDPNIYDYCAAKTLYISDSDKRKYFDLNAQFFYGCGMEIGGFVSQRIKVISKPSKKKQSMKNTDCKYLCIASGTKVALFNRLRSQTVSTRYLHVEGNAFHASSTKWGAFTIHLFDDERGLQETDNFAVRDGFVYYGSVVKLVDSVTGIALPRLRIRKVDKQQVILDASCSEEPVSQLHKCAFQMIDNELVYLCLSHDKIIQHQATAINEHRHQINDGAAWTIISTDKAEYRFFEAMGQVANPISPCPVVGSLEVDGHGEASRVELHGRDFKPNLKVWFGATPVETTFRSEESLHCSIPPVSQVRNEQTHWMFTNRTTGDVEVPISLVRDDGVVYSSGLTFSYKSLERHGPCRIVSNY	not soluble
MSEHSEDTEDIKPTISTAPDDCMESDPIKEINFLLASSKNMKIEETPVFNIRLIAEVKARPFLYDQSDEGYNLLSWRNSAWNEIAENLETTSEHVKTRWKTLRDRYKKEEKKERVSKKASSWVFQRPLKFIQAHLKDRQ	not soluble
MSGASKKVSEEELQKQYADYRAQFEQWKENNKGSIGTEAYNSYVQQFEQWEKEVEARTSQQQKHRKAAAVDKEAEAAAAAYAQSQEAYMAHHLRGMEQTEMQKRAAAAAQLQQQQMMQNMMMQRPPQHQQPPPQDVMFGAVGRVAQGAPAAAPPPTQQPPPQLWGNNKPIYDARDPLFAKWGERAASAHCKPETEQQINPVACWLLLDALREKKMVLAPHSNTCPPPQIGGHQI	not soluble
MSGGGKDRIAVFPSRMAQTLMKTRLKGAQKGHSLLKKKADALNLRFRDILRKIVENKVLMGEVMKEAAFSLAEAKFTAGDFSHTVIQNVSQAQYRVRMKKENVVGVFLPVFDAYQDGPDAYDLTGLGKGGANIARLKKNYNKAIELLVELATLQTCFITLDEAIKVTNRRVNAIEHVIIPRIENTLTYIVTELDEMEREEFFRMKKIQANKKKLKEQEAAQKALEGPGPGEDAAHSENNPPRNLLASEEDNLPVLFN	not soluble
MSKRDFYEVLGVGRDASERDIKKAYKRLAMKYHPDRNSGDAGAAEKFKEVKEAYEILTDAQKKAAYDQYGHAAFEQGAGGFGGGGFGGGGADFGDIFGDVFGDIFGGGRRGGGPRAQRGSDLRYNMELSLEEAVRGCSKEIEVPTLVHCDACDGSGAKKGTSAQTCGTCHGHGQVQMRQGFFAVQQTCPTCHGKGKIIKDPCNVCHGQGRKQKTKTLNVKIPAGVDTGDRIRLSGEGEAGEMGAPAGDLYVQVHVKEHHIFERDGNNLYCEVPVSFAMAALGGEVEVPTLDGRVSLKVPAETQTGRMFRMRGKGVKGVRSAALGDLIVKLVVETPVNLSARQKELLKEFEESCGGEAATKHKPKAEGFFNGVKKFFDDLTS	not soluble
MSLSPNPLLQVRNLSVSFTTNDGVVDAVKNVSFDIRPGETLAIVGESGSGKSVSTNALMQLLPKNARIHPESSIMFEGEELLNKTDTQMRRIRGDRIGMIFQEPMTSLNPYMRVGVQVAEAIRCHRNVSQNQAKQRVLELFQLVHLPDPKGAYQKFPHEFSGGQLQRIMIAMALINEPDILIADEPTTALDVTVQAEVLRLIKEIQANMGMAILFITHDLGVVKFVADRVLVMCKGDVVEQGSTEQLFLQPEHDYTRMLINSIPKGSKDPVAEGHHHHHH	soluble
MSWMLRSLSARFSRNRQQQQKSQTQDASFDTKKFVQCKVLLLDGAHLNIVVPRNAVGSELYEEVFYSLDLEERDYFGLQYTDPFNVQHWLDPTKKVAKQVAIGPPFTLRFRVKFFTSEPSSNLKEELTRYQFFLQIKQDISSGRLQCPHQLAIELAAFALQSELGDYNPELHTALFISEFRFHPEQDEKMEVEILERYKACRGQTPAQAELNYLNKARWIEMYGVDMHIVEGKDGNTYRLGLTPQGMLVFDGPQKIGLFLWEKLQKLDFKNKKITLVVEEDADQSNNGQIQLHTFVFHLTSEKAAKHFWKCAIEQHAFFRLKSRPIQANRKIQFFRLGSTFKYRGRTEYETIHKEGARLSRRQSCSFERRPSQRYGPRQSHVTNAQIRDAKRAEMRQQIIEQQRANDQQRTHAKSDPTSPHSIIQNVPLPTSPDLKKPVNNSNPFISDPLTPSSSSSSSSHNLSHVTKITVGTIGNLDTPSSSAAPSSYIPRPVVSTSTSFSHPPPLPAHQSNSKIPRMSSASEQRKSSQPPQPAVRMQTQFEEPRKYSQNGCAPPSRIVPPMQHQRRIVTDF	not soluble
MTHAMLKGSNVPLQATTVRAVLRWTPGQGVPDVDASALLLGPDDRVRSDEDFVFYNQPRHPSGQVWRLGKKRVAEGLTDTIQTDLSGVEPSVGRILLVASADGVTFDRVRSLRILLHDAAADAEPLAYFDVTPETGQETALICGELYRRGEGWKFRALGEGYSNGLRGLATDFGISVDESEGANDPMSAPRPDAASTSPAAASAASSSAPSQATPDQPTPARSIPAPPVVGPDHPTAVQPLPGPSRPLPPEQPTGVPAQPAYGYPQQPATAQPAYGYPQPDAGRPGYGYPQAPAAAGATGAQSGYGYPQPVTGAPDPDFRLPPQGPQFVGR	not soluble
MTISKNNKMMAHLNYRMKIILQDGRTFIGFFKAFDKHMNILLAECEEHRQIKPKAGKKTDGEEKRILGLVLVRGEHIVSMTVDGPPPRDDDSVRLAKAGGAGGVGQAKPGGRGMPAMPGMPGMPPGGAPGGLSGAMRGHGGPGMAAMQPGYGGPPGGRPF	not soluble
MTLTQEQRLVLDAVRRVAREVLYPLAPEYDRKAEYPWPQLKALAELGLLGMTTPEEWGGVGLDSVTWALALEELAAADPSVAVIVSVTSGLPQYMLLRFGSEAQKRRYLVPLARGEWIGAFCLTEPQAGSDAKSLRAEARRVKGGFVLNGVKSWITSAGHAHLYVVMARTEKGISAFLVEKGTPGLSFGRPEEKMGLHAAHTAEVRLEEVFVPEENLLGEEGRGLAYALAGLDSGRVGVAAQAVGIARGAFEIAKAYAEEREQFGKKLKEHQAIAFKIADMHVKIAAARALVLEAARKKDRGERFTLEASAAKLFASAAAVEVTREAVQVLGGYGYHRDYRVERYYRDAKVTEIYEGTSEIQRLVIARELYR	soluble
MVREGIVLGHKISKKGVQVNKAKVDVMMQLQPPKTGKDIRSFLGHAGFYRRFIKDFSKLARPLTRLLCKEAEFIFEEECLTAFKSTKEALVSAPIVQAPNRDYPFEIMCDDSDYAVGAVLGQKIDRKLHVIYYASGTMDDTQVRYATTEKELLAVVFAFEKFRSYLVGSKVTVYTDHAALRHIYAKKDTKPRLLRWILLLQEFDMEIVDKKGIENGVADHLSRMRIEDEVPIDDSMPEEQLMAIQQLNESAQINKSLDQVCAVEDKLMWYADHVKYLFGGEEPPNLSSYEKKKFFKDINHF	soluble
PGKTGLGNMHAQRQFVVAAVRAEVRRHEVAKQALNRLRKLAERVDDPELQDSIQASLDSIREAVINSQEWTLSRSIPELRLGVLGDARSGKSSLIHRFLTGSYQVLEKTESEQYKKEMLVDGQTHLVLIREEAGAPDAKFSGWADAVIFVFSLEDENSFQAVSRLHGQLSSLRGEGRGGLALALVGTQDRISASSPRVVGDARARALCADMKRCSYYETCATYGLNVDRVFQEVAQKVVTLRKQQQLLAACKSLPSSPSHSAASTPVAGQASNGGHTSDYSSSLPSSPNVGHRELRAEAAAVAGLSTPGSLHRAAKRRTSLFANRRGSDSEKRSLDSRGETTGSGRAIPIKQSFLLKRSGNSLNKEWKKKYVTLSSNGFLLYHPSINDYIHSTHGKEMDLLRTTVKVPGKRPPRAISAFGPSASINGLVKDMSTVQMGEGLEATTPMPSPSPSPSSLQPPPDQTSKHLLKPDRNLARALSTDCTPSGDLSPLSREPPPSPMVKKQRRKKLTTPSKTEGSAGQAEEENFEFLIVSSTGQTWHFEAASFEERDAWVQAIESQILASLQCCESSKVKLRTDSQSEAVAIQAIRNAKGNSICVDCGAPNPTWASLNLGALICIECSGIHRNLGTHLSRVRSLDLDDWPRELTLVLTAIGNDTANRVWESDTRGRAKPSRDSSREERESWIRAKYEQLLFLAPLSTSEEPLGRQLWAAVQAQDVATVLLLLAHARHGPLDTSVEDPQLRSPLHLAAELAHVVITQLLLWYGADVAARDAQGRTALFYARQAGSQLCADILLQHGCPGEGGSAATTPSAATTPSITATPSPRRRSSAASVGRADAPVALV	soluble
SARTCPPNQFSCASGRCIPISWTCDLDDDCGDRSDESASCAYPTCFPLTQFTCNNGRCININWRCDNDNDCGDNSDEAGCSH	soluble
VEVDCSRFPNTTNEEGKDVLVCTEDLRPICGTDGVTHSECLLCAYNIEYGTNISKEHDGECREAVPMDCSRYPNTTSEEGKVMILCNKALNPVCGTDGVTYDNECVLCAHNLEQGTSVGKKHDGECRKELAAVSVDCSEYPKPACTLEYRPLCGSDNKTYGNKCNFCNAVVESNGTLTLSHFGKC	soluble
VQDRVKRPMNAFIVWSRDQRRKMALENPRMRNSEISKQLGYQWKMLTEAEKWPFFQEAQKLQAMHREKYPNYKYRKGETKKKFKDPNAPKRPPSAFFLFCSEYRPKIKGEHPGLSIGDVAKKLGEMWNNTAADDKQPYEKKAAKLKEKYEKDIAAYRAK	soluble
